The list shows a part of the results.
Tests used:
Assay in all cases: log2 fold change, soluble protein after heating vs DMSO (PISA); higher = thermal stabilisation; K562 cells, 10 uM, 30 min; active = over 0.2 and 3.5 SD of the protein, either way, in both replicates (recomputed)
[1] = compound: NC(=O)Nc1cc(-c2cccc(F)c2)sc1C(=O)N[C@H]1CCCNC1
How it was run: (§1)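 K562 cells at 2×10^6 cells/mL were treated with 10 μM compound for 30 min. Aliquots were heated for 3 min across 48°C-58°C, pooled, and extracted in PBS with 0.5% NP-40 at 4°C; soluble protein was the supernatant after 21,000xg for 90 min. Soluble protein was quantified by TMTpro 16plex LC-MS/MS with channel sums equalised, and reported as log2 fold change in thermal stability against DMSO controls, with values from duplicates.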

Chains of the proteins cited; added tags and fusions are not shown. Lines headed by an entry give the natural chain unless they say otherwise; changes in a name come on top.
UniProt Q92551: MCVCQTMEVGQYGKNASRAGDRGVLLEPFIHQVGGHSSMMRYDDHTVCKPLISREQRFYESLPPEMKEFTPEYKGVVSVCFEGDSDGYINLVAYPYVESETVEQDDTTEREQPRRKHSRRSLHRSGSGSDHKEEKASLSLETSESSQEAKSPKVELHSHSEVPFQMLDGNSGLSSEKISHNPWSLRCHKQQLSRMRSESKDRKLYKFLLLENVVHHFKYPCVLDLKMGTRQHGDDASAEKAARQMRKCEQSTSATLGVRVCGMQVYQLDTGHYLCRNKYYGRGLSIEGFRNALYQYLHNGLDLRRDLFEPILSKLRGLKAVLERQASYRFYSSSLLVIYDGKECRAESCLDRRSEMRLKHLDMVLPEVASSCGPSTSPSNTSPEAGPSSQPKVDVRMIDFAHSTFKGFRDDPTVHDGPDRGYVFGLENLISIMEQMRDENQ
UniProt Q12906, whole entry, looked up: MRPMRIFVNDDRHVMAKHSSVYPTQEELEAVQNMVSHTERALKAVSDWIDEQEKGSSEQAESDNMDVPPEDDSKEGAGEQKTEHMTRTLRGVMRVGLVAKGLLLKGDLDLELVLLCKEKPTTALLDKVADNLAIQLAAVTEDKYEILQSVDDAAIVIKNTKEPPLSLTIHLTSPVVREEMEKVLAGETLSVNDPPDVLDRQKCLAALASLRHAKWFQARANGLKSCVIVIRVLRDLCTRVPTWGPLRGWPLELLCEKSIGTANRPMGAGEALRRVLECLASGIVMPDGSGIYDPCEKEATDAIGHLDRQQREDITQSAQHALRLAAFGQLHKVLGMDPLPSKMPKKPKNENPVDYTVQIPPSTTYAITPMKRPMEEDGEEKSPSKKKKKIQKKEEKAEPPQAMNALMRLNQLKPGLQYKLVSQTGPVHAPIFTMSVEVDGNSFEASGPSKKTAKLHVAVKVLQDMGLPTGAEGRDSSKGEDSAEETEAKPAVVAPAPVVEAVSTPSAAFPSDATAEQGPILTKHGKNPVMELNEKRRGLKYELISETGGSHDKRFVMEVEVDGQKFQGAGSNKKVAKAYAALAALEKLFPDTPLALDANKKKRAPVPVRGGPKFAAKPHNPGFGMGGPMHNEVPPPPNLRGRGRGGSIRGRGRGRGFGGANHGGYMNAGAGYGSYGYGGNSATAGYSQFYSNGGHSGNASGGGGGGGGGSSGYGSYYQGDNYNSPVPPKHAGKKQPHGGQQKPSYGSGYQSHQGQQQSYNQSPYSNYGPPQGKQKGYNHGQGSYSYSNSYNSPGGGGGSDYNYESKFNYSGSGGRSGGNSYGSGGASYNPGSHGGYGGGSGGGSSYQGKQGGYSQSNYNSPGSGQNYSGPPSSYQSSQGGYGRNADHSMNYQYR
UniProt P05161, whole entry, looked up: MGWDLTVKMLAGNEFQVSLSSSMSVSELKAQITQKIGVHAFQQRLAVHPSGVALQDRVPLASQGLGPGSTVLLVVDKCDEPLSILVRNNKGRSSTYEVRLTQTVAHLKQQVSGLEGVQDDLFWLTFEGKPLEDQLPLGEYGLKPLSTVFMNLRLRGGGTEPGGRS
UniProt Q70UQ0: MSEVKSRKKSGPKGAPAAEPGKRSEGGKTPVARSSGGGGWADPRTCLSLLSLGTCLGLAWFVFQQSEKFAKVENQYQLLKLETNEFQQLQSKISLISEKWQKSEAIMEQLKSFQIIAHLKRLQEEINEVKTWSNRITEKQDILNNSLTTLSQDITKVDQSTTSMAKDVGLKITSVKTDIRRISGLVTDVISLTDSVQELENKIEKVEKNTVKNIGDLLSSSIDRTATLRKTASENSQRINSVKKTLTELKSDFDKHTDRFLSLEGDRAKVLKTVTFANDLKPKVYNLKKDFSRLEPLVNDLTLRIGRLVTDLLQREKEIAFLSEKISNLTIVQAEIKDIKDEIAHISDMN
UniProt Q6UWB1, whole entry, looked up: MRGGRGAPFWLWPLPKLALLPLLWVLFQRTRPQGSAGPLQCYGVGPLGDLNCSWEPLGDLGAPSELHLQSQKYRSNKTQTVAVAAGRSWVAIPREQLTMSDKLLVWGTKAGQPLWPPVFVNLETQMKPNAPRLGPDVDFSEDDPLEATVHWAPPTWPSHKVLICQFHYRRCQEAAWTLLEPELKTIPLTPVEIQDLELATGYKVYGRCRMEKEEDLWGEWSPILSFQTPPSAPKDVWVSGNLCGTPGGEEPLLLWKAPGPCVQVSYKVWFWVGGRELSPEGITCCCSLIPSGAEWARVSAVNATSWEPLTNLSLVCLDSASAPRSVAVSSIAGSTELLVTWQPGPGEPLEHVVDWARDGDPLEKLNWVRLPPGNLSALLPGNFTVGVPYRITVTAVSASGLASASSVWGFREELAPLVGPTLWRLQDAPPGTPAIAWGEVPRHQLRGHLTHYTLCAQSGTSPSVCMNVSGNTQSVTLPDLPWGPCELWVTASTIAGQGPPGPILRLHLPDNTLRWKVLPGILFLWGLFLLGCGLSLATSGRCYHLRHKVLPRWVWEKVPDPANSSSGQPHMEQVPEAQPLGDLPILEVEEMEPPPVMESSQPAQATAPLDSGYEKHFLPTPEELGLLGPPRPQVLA
UniProt Q27J81, whole entry, looked up: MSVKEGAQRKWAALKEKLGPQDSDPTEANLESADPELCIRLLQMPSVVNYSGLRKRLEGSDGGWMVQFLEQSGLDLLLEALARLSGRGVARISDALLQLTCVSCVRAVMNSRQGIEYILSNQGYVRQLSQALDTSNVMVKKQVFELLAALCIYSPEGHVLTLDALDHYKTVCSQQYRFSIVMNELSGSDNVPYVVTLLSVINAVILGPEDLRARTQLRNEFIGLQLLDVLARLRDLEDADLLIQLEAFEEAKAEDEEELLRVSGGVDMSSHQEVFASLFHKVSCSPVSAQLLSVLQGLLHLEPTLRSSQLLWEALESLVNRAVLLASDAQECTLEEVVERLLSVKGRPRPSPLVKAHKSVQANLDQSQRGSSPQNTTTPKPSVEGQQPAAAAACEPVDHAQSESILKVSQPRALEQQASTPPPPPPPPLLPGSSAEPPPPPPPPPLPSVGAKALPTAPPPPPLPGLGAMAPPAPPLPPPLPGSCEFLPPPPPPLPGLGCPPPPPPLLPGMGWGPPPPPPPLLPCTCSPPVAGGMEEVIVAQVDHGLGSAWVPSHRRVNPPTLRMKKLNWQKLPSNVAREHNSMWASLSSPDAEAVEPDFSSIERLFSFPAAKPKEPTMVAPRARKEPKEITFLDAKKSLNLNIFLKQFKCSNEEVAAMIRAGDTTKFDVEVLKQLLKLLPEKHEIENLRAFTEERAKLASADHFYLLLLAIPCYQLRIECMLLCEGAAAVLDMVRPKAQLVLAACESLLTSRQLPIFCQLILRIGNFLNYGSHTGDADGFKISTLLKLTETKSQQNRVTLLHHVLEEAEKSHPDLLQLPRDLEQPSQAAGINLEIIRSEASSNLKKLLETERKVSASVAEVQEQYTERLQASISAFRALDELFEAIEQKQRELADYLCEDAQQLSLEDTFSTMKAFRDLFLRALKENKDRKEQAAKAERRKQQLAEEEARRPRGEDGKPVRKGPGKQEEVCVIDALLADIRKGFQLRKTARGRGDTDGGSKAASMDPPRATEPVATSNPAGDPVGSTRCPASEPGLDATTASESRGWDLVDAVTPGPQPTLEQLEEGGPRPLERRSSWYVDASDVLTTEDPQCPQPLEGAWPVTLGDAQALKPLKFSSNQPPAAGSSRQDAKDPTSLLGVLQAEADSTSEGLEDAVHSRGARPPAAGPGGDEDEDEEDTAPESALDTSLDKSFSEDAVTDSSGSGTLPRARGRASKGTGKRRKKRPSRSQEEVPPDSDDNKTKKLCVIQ
UniProt P0DMQ5: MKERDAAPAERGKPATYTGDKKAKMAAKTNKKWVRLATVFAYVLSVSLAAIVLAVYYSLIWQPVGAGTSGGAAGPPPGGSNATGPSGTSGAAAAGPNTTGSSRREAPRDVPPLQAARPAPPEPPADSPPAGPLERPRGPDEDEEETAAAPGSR
UniProt Q9Y287, whole entry, looked up: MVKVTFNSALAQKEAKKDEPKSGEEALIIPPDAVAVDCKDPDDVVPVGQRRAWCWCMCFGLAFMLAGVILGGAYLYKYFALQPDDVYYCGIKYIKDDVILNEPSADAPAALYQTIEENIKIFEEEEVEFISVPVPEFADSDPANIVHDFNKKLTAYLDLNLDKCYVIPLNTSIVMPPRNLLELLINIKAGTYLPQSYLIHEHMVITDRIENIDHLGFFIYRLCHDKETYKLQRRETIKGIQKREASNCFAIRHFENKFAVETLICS
UniProt Q96LU5: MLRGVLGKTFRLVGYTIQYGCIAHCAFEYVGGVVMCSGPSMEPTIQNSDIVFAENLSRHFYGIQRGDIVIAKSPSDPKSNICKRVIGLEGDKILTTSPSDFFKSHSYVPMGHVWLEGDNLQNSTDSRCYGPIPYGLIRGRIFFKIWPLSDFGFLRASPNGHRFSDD
UniProt Q01628, whole entry, looked up: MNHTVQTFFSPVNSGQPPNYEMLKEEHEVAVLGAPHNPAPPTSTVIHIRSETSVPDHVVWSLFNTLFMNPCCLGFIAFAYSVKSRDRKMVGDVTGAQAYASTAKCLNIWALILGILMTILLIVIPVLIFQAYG
UniProt Q96F46, whole entry, looked up: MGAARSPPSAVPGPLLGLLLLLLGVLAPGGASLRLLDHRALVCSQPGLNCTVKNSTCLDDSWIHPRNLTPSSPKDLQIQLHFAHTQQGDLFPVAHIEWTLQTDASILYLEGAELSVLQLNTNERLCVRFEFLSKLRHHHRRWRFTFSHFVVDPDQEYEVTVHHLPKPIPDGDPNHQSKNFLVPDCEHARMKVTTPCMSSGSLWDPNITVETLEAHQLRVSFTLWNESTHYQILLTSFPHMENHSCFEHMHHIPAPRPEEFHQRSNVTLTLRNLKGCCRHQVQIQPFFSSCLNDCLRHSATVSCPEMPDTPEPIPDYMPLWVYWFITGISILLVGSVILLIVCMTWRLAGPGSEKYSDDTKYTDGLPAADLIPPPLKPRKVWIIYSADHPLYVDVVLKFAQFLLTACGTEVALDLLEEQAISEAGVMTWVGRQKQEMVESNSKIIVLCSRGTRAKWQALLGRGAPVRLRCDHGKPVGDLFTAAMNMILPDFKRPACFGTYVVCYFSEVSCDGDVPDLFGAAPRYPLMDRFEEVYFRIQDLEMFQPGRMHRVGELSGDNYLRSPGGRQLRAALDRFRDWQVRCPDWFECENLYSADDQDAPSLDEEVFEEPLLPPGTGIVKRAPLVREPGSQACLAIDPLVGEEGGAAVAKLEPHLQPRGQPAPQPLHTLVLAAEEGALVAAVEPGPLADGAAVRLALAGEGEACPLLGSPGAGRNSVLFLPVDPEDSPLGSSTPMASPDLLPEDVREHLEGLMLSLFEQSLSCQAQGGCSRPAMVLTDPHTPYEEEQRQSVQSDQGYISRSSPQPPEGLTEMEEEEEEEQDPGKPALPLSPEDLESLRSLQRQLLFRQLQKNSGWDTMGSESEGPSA
UniProt Q96T52: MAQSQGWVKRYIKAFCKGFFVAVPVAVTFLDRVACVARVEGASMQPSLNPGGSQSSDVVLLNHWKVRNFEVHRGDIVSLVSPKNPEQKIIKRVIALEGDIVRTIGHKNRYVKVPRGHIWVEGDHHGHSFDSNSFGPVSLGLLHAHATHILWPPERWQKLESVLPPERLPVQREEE

[2] = compound: NC(=O)c1cnc(N[C@@H]2CCCC[C@@H]2N)nc1Nc1cccc(-n2nccn2)c1
How it was run: as §1

[3] = compound: NCC(=O)Nc1ccc(-n2nc(C(F)(F)F)cc2-c2ccc3c(ccc4ccccc43)c2)cc1
How it was run: as §1

entinostat = compound: Nc1ccccc1NC(=O)c1ccc(CNC(=O)OCc2cccnc2)cc1 [entinostat]
How it was run: as §1

vorinostat = compound: O=C(CCCCCCC(=O)Nc1ccccc1)NO [vorinostat]
How it was run: as §1

[4] = compound: O=C1NC(=O)C(c2cnc3ccccn23)=C1c1cn2c3c(cc(F)cc13)CN(C(=O)N1CCCCC1)CC2
How it was run: as §1

[5] = compound: NC1(c2ccc(-c3nc4ccn5c(=O)[nH]nc5c4cc3-c3ccccc3)cc2)CCC1
How it was run: as §1

citarinostat = compound: O=C(CCCCCCNC(=O)c1cnc(N(c2ccccc2)c2ccccc2Cl)nc1)NO [citarinostat]
How it was run: as §1

silmitasertib = compound: O=C(O)c1ccc2c(c1)nc(Nc1cccc(Cl)c1)c1ccncc12 [silmitasertib]
How it was run: as §1

[6] = compound: c1cc(OCCN2CCCCC2)cc(-c2n[nH]c3ccc(-c4nnc[nH]4)cc23)c1
How it was run: as §1

Measured: log2 fold change

IGFBP3 isoform 2 (UniProt P17936)
inactive: [1] 0.042 | [2] -0.142 | [3] -0.043 | entinostat -0.02 | vorinostat 0.167 | [4] -0.047

IGF2BP2 (UniProt Q9Y6M1)
inactive: [1] 0.014 | [2] -0.051 | [5] 0.237 | [3] 0.045 | entinostat 0.015 | vorinostat 0.128 | citarinostat -0.178 | silmitasertib 0.16 | [4] 0.155 | [6] -0.208

ISOC2 (UniProt Q96AB3)
inactive: [1] 0.013 | [2] -0.146 | [5] 0.059 | [3] 0.022 | entinostat 0.007 | citarinostat -0.005 | silmitasertib 0.05 | [4] -0.029 | [6] -0.098

IPO5 isoform 3 (UniProt O00410)
inactive: [1] 0.015 | [2] -0.037 | [5] -0.206 | [3] 0.046 | entinostat 0.001 | vorinostat 0.088 | citarinostat 0.055 | silmitasertib -0.009 | [4] 0.041 | [6] -0.052

INTS8 (UniProt Q75QN2)
inactive: [1] 0.116 | [2] -0.035 | [3] -0.081 | entinostat -0.146 | vorinostat 0.245 | citarinostat 0.015 | [6] -0.003

IP6K1 (UniProt Q92551)
active: [6] 0.858
inactive: [1] -0.039 | [2] -0.253 | [5] -0.457 | entinostat 0.089 | vorinostat 0.138 | citarinostat -0.02 | silmitasertib -0.059 | [4] -0.048

ITFG1 (UniProt Q8TB96)
inactive: [1] -0.044 | [2] 0.023 | [5] -0.075 | [3] 0.014 | entinostat -0.008 | vorinostat -0.013 | citarinostat -0.15 | silmitasertib 0.081 | [4] -0.105 | [6] -0.081

IFI35 isoform 2 (UniProt P80217)
inactive: [1] -0.018 | [2] 0.007 | [5] -0.063 | [3] 0.027 | entinostat -0.014 | vorinostat 0.011 | citarinostat -0.006 | silmitasertib -0.099 | [4] -0.024 | [6] -0.053

ITGAE (UniProt P38570)
inactive: [1] -0.179 | [5] -0.009 | [3] 0.094 | entinostat -0.185 | vorinostat 0.052 | silmitasertib -0.033 | [4] -0.077

ILF3 isoform 7 (UniProt Q12906)
inactive: [1] -0.056 | [2] 0.055 | [5] 0.17 | [3] 0.107 | entinostat -0.083 | vorinostat -0.052 | citarinostat -0.053 | silmitasertib 0.189 | [4] 0.32 | [6] -0.105

ITGA2B (UniProt P08514)
inactive: [1] 0.085 | [2] -0.222 | [3] -0.009 | entinostat -0.009 | [4] 0.02
active: vorinostat -0.495

INPP5K (UniProt Q9BT40)
inactive: [1] 0.207 | [5] -0.225 | [3] -0.109 | entinostat -0.323 | vorinostat 0.074 | citarinostat -0.024 | silmitasertib -0.135 | [4] 0.029 | [6] -0.018

ISG15 (UniProt P05161)
inactive: [1] 0.007 | [2] -0.129 | [5] -0.161 | [3] -0.156 | entinostat 0.055 | vorinostat 0.072 | citarinostat 0.093 | silmitasertib 0.096 | [4] -0.016 | [6] 0.006

ILRUN (UniProt Q9H6K1)
inactive: [1] -0.213 | [2] -0.09 | [5] -0.128 | [3] -0.025 | entinostat 0.024 | citarinostat 0.027 | silmitasertib 0.014 | [4] -0.059 | [6] -0.01

IRF2BPL (UniProt Q9H1B7)
active: [4] -0.218
inactive: [1] 0.032 | [2] 0.011 | [5] 0.013 | [3] -0.004 | entinostat -0.024 | vorinostat 0.007 | citarinostat -0.001 | silmitasertib 0.027 | [6] -0.03

IFNAR1 (UniProt P17181)
inactive: [1] -0.028 | [5] -0.014 | [3] 0.097 | entinostat -0.02 | vorinostat 0.026 | silmitasertib 0.103 | [4] -0.132

IKBIP (UniProt Q70UQ0)
inactive: [1] -0.002 | [2] -0.071 | [5] 0.007 | [3] 0.011 | entinostat -0.072 | vorinostat -0.029 | citarinostat -0.015 | silmitasertib 0.026 | [4] 0.042 | [6] -0.079

IGKC (UniProt P01834)
inactive: [1] 2.08 | [2] 0.842 | [5] 0.16 | [3] -0.283 | entinostat 0.019 | citarinostat 0.082 | silmitasertib 0.638 | [6] 0.257

IL27RA (UniProt Q6UWB1)
inactive: [1] -0.077 | [2] -0.091 | [5] -0.116 | [3] -0.123 | entinostat 0.016 | citarinostat 0.082 | silmitasertib 0.009 | [4] 0.154 | [6] -0.172

INF2 (UniProt Q27J81)
inactive: [1] 0.054 | [2] 0.025 | [5] -0.05 | entinostat 0.085 | silmitasertib 0.029 | [4] 0.233

INAFM2 (UniProt P0DMQ5)
inactive: [1] 0.145 | [2] -0.151 | [5] -0.102 | entinostat -0.041 | citarinostat 0.097 | silmitasertib -0.001 | [4] 0 | [6] 0.154

ITM2B (UniProt Q9Y287)
inactive: [1] -0.036 | [2] 0.091 | [5] -0.144 | [3] 0.021 | entinostat -0.083 | citarinostat -0.006 | [4] 0.109 | [6] -0.178
active: silmitasertib 0.38

IMMP1L (UniProt Q96LU5)
inactive: [1] -0.062 | [2] -0.055 | [5] -0.103 | [3] -0.037 | entinostat 0.005 | citarinostat 0.044 | silmitasertib -0.132 | [4] -0.088 | [6] 0.017

IFITM3 (UniProt Q01628)
inactive: [1] -0.074 | [2] 0.1 | [5] -0.089 | [3] 0.14 | entinostat 0.008 | citarinostat 0.232 | silmitasertib -0.111 | [4] 0.072 | [6] -0.164

IL17RA (UniProt Q96F46)
inactive: [1] 0.044 | [2] 0.005 | [5] -0.063 | entinostat -0.154 | silmitasertib 0.09

ITFG2 (UniProt Q969R8)
inactive: [1] 0.005 | [2] -0.141 | [5] -0.163 | [3] -0.047 | entinostat 0.038 | silmitasertib 0.073 | [4] -0.137

ITM2C (UniProt Q9NQX7)
inactive: [1] -0.309 | [2] -0.009 | [3] -0.133 | entinostat 0.164 | vorinostat -0.032 | [4] 0.029

IPO9 (UniProt Q96P70)
inactive: [1] 0.059 | [2] -0.072 | [5] -0.07 | [3] 0.003 | entinostat 0.022 | vorinostat 0.041 | citarinostat 0.061 | silmitasertib 0.164 | [4] 0.048 | [6] -0.035

IPO8 (UniProt O15397)
inactive: [1] 0.032 | [2] -0.014 | [3] -0.067 | entinostat 0.061 | citarinostat 0.011 | [4] 0.169 | [6] -0.057

IMMP2L (UniProt Q96T52)
inactive: [1] -0.083 | [2] -0.035 | [5] -0.007 | [3] -0.033 | entinostat -0.018 | vorinostat 0.04 | citarinostat 0.036 | silmitasertib 0.006 | [4] -0.084 | [6] -0.026

ISCA1 isoform 2 (UniProt Q9BUE6)
inactive: [1] -0.058 | [2] 0.04 | [5] -0.115 | [3] -0.147 | entinostat 0.016 | vorinostat 0.092 | citarinostat 0.032 | silmitasertib 0.083 | [4] -0.021 | [6] 0.034

Quoted from above (two entries):
IPO8 (UniProt O15397)
inactive: [1] 0.032 | [2] -0.014 | [3] -0.067 | entinostat 0.061 | citarinostat 0.011 | [4] 0.169 | [6] -0.057

IMMP2L (UniProt Q96T52)
inactive: [1] -0.083 | [2] -0.035 | [5] -0.007 | [3] -0.033 | entinostat -0.018 | vorinostat 0.04 | citarinostat 0.036 | silmitasertib 0.006 | [4] -0.084 | [6] -0.026

Source: the supplement of paper PMC10849652
